# According to PubChem BioAssay AID1671190 (National Center for Advancing Translational Sciences (NCATS), 2021):
# Amino acid sequences for entries named in this document (tags omitted). A change or cut given only in a name is not applied to a line headed by its entry.
# UniProt P18054: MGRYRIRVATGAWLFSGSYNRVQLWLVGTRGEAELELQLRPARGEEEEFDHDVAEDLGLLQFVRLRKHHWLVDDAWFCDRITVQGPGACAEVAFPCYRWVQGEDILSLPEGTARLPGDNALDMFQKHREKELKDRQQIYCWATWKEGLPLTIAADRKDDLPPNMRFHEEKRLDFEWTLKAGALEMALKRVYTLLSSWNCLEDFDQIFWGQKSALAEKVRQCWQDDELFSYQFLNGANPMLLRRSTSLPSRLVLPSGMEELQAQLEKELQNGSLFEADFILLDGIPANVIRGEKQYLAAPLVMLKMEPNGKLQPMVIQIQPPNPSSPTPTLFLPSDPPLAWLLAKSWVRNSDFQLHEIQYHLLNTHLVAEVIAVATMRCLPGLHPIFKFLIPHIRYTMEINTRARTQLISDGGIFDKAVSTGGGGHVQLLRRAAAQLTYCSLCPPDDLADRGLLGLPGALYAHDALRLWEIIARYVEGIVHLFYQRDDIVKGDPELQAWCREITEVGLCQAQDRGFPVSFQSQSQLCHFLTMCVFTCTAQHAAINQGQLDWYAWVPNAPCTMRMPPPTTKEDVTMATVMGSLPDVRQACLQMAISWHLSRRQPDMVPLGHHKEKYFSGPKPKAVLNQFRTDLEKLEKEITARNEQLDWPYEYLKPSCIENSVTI
# About 6,100 (1.1%) of roughly 580,000 compounds were called active. Inconclusive results, whose numbers are uncertain, are shown with a selection of clear calls. The call rests on the fitted dose curve; in most records, active means well fitted inhibition curve with a large enough effect; inconclusive means small, poorly fitted or top-dose-only effect, or another doubt; inactive means no such curve, though single readings can be large or run the other way. Where the call is inconclusive, the potency comes from a doubtful curve fit.
# Target: Polyunsaturated fatty acid lipoxygenase ALOX12 (Homo sapiens) (UniProt P18054)
# Assay: Primary qHTS assay for inhibitors of human arachidonate 12S-lipoxygenase (ALOX12): Round 2
# Conditions: purified 12hLO, xylenol orange hydroperoxide absorbance; series mostly up to 108 µM
# Method in brief: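 Purified human 12hLO (150 nM final) in 25 mM Hepes, 0.01% Triton X-100, pH 7.0 was preincubated 15 min at room temperature with compound. Then 40 uM arachidonic acid was added, 30 min. Hydroperoxide was read by Fe-XO absorbance ratio 573/405 nm.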
# Potency means the concentration at half of the fitted maximal effect.
row,SMILES,Potency
1,Cc1ccccc1Nc1nc(-c2cc3cc(Cl)ccc3oc2=O)cs1,"inconclusive: 44.7 µM [inhibitor, partial curve, poor fit]"
2,CCOC(=O)C1=C(CN2CCCCC2)NC(=O)NC1c1ccc(C)cc1 (configuration not stated),"inconclusive: 70.8 µM [inhibitor, partial curve, poor fit]"
3,O[C@@H]1C[C@@H](c2nc(-c3ccc(F)cc3)no2)N(Cc2ccc(F)cc2)C1,"inconclusive: 22.4 µM [inhibitor, full curve, poor fit]"
4,Cc1ccc(CNC(=O)c2sc3nc(-c4ccc(F)cc4)ccc3c2N)cc1,inactive
5,Cc1ccc(-c2csc(Nc3c(C)cccc3C)n2)cc1,"inconclusive: 39.8 µM [inhibitor, partial curve]"
6,COc1ccc(CNc2nc3ccccc3nc2NS(=O)(=O)c2cccc3nsnc23)cc1,inactive
7,CCn1c(C)c(C)c2cc(C(=O)NCCN3CCOCC3)ccc21,inactive
8,O=C(NCCCN1CCCC1)c1ccc2c(Cl)c3c(nc2c1)CCCC3,inactive
9,O=CNc1cc(-c2ccc(C(=O)NC3CC3)cc2)cn2c(-c3ccc(F)c(Cl)c3)cnc12,"inconclusive: 31.6 µM [inhibitor, partial curve]"
10,FC(F)(F)c1cccc(-c2nccn3c(C4CN(Cc5ccc6cn[nH]c6c5)C4)ncc23)c1,"inconclusive: 31.6 µM [inhibitor, partial curve, poor fit]"
11,C=CCn1c(-c2cccc(OCC)c2)n[nH]c1=S,"inconclusive: 50.1 µM [inhibitor, partial curve, poor fit]"
12,C[C@H](CO)N1C[C@H](C)[C@@H](CN(C)S(=O)(=O)c2ccc(F)cc2)Oc2ccc(NC(=O)Cc3cn(C)c4ccccc34)cc2C1=O,inactive
13,S=C(N/N=C1/CC2C=CCC12)NC1CCCCC1 (configuration not stated),"inconclusive: 89.1 µM [inhibitor, partial curve, poor fit]"
14,NC(=O)COc1ccc(C2CC(=O)Nc3nc(N4CCCCC4)sc32)cc1 (configuration not stated),"inconclusive: 8.91 µM [inhibitor, partial curve, poor fit]"
15,CCCN1C(=O)C(Cc2nc3ccccc3c(=O)n2C)c2ccccc21 (configuration not stated),inactive
16,O=c1c2oc3ccccc3c2[nH]c(=S)n1-c1ccc(F)cc1,"inconclusive: 56.2 µM [inhibitor, single point]"
17,Cc1c(CC(=O)NCc2ccccc2)c(=O)oc2cc(O)c(Cl)cc12,"inconclusive: 126 µM [inhibitor, single point]"
18,CCn1nc(C)c2c(-c3ccccc3)cc(=O)n(C(C)C(=O)NCc3ccc(C)cc3)c21 (configuration not stated),"inconclusive: 112 µM [inhibitor, partial curve, poor fit]"
19,COCC1CCN(Cc2nc(-c3cccs3)no2)C1 (configuration not stated),"inconclusive: 112 µM [inhibitor, partial curve, poor fit]"
20,COc1ccc(-c2ccc(NC(=O)c3ccc(Br)o3)cc2)nn1,"inconclusive: 112 µM [inhibitor, partial curve, poor fit]"
21,CCOC(=O)N1CCN(C(=O)COc2ccc(Br)cc2Cl)CC1,inactive
22,CCCCCNC(=O)CCn1c(=O)[nH]c2ccccc2c1=O,"inconclusive: 141 µM [inhibitor, single point]"
23,CC(C)CCn1nc(C(=O)OCC(=O)NC23CC4CC(CC(C4)C2)C3)c2ccccc2c1=O,inactive

row,SMILES,Potency
1,Nc1c(C(=O)Nc2ccc(F)cc2)sc(=S)n1-c1ccccc1F,"inconclusive: 50.1 µM [inhibitor, partial curve, poor fit]"
2,CC(O)(c1ccc(F)c(F)c1)c1nc(-c2cccc(C(F)(F)F)c2)cs1 (configuration not stated),"inconclusive: 2.51 µM [inhibitor, full curve, poor fit]"
3,COc1ccc(/C=C/c2nc3ccccc3c(=O)n2-c2cccc(C(F)(F)F)c2)cc1,inactive
4,COc1cccc(Oc2nnnn2-c2ccccc2)c1,inactive
5,CNc1nnc(SCc2coc(-c3ccccc3)n2)s1,"inconclusive: 100 µM [inhibitor, single point]"
6,O=C(N/N=C/c1ccc[nH]1)c1ccc2c(c1)OCO2,"inconclusive: 28.2 µM [inhibitor, partial curve, poor fit]"
7,N#Cc1cc2c([nH]c1=S)CCCCCC2,active: 15.8 µM
8,c1ccc2ncc(CNC[C@H]3COCc4nc5ccccc5n43)cc2c1,inactive
9,CNC(=S)N1N=C(c2ccccc2)CC1c1ccc(OC)c(OC)c1 (configuration not stated),inactive
10,CC(=O)c1c(C)[nH]c(C(=O)N2CCN(S(=O)(=O)c3ccc(C)cc3C)CC2)c1C,"inconclusive: 50.1 µM [inhibitor, partial curve, poor fit]"
11,CCN1C=C(Cc2ccc(F)cc2)C2=C(C1)C(c1ccc(F)cc1)C(C#N)=C(N)O2 (configuration not stated),"inconclusive: 14.1 µM [inhibitor, partial curve, poor fit]"
12,O=C(O)Cn1ccc2cc(OCc3cccc(-c4cccc(C(F)(F)F)c4)c3)cnc21,"inconclusive: 44.7 µM [inhibitor, partial curve]"
13,CCCc1nc(SCC(=O)NNC(=O)C2CCCCC2)c2ccccc2n1,inactive
14,O=C(N/N=C/c1ccc(Br)s1)C(c1ccccc1)c1ccccc1,inactive
15,CCCCn1c(N)c(N(C)C(=O)c2cc(-c3ccncc3)nc3ccccc23)c(=O)[nH]c1=O,inactive
16,COc1ccccc1-c1cnc2c(Nc3cccc(OC(F)(F)C(F)F)c3)nccn12,inactive
17,CN(C)S(=O)(=O)c1ccc2c(c1)C(=Cc1cc3c([nH]1)CCCC3)C(=O)N2,"inconclusive: 4.85 µM [inhibitor, partial curve, poor fit]"
18,COc1ccc(-c2sc3ccccc3c2/C=C/c2ccc(OC)c(OC)c2)cc1,"inconclusive: 89.1 µM [inhibitor, single point]"
19,COc1cccc2sc3cc(C#Cc4ccccn4)ccc3c(=O)c12,"inconclusive: 6.31 µM [inhibitor, full curve]"
20,COc1cccc(N2CCN(c3c4c(nc5ncnn35)CCC4)CC2)c1,inactive
21,COc1ccc(NC(=O)Cc2ccsc2)cc1S(=O)(=O)N1CCCCC1,inactive
22,CC(C)(C)c1ccccc1OCCCCCNCCO,"inconclusive: 2.82 µM [inhibitor, full curve, poor fit]"
23,CC1=NOC(=O)/C1=C\c1ccc(-c2cc(Cl)ccc2Cl)o1,active: 2.24 µM

# 2 of the compounds above, with bars between the fields:
row | SMILES | Potency
13 | CCCc1nc(SCC(=O)NNC(=O)C2CCCCC2)c2ccccc2n1 | inactive
14 | O=C(N/N=C/c1ccc(Br)s1)C(c1ccccc1)c1ccccc1 | inactive

# Following part

row,SMILES,Potency
1,Oc1ccc(Cl)cc1C=NCc1ccc(F)cc1Cl,"inconclusive: 56.2 µM [inhibitor, partial curve, poor fit]"
2,Cc1ccc(NC(=S)NNC(=S)Nc2cccc(C(F)(F)F)c2)cc1,"inconclusive: 31.6 µM [inhibitor, partial curve, poor fit]"
3,COc1ccc(-c2csc(N(CCCN(C)C)C(=O)c3ccccc3C)n2)cc1,"inconclusive: 0.355 µM [inhibitor, full curve, poor fit]"
4,CCN(CC)c1cc(C)c2cc(NC(=O)c3ccc(Br)o3)ccc2n1,inactive
5,COc1ccc(Cl)cc1NC(=O)N1CCC(CN2CCCCCC2)CC1,"inconclusive: 89.1 µM [inhibitor, partial curve, poor fit]"
6,CC(=O)C[C@@H](O)CC(=O)[C@@H]1OC(=O)CCCCCCCc2ccccc21,"inconclusive: 112 µM [inhibitor, single point]"
7,C[C@]12C=CC(=O)C=C1CC[C@@H]1C2C(O)C[C@@]2(C)C1CC[C@]2(O)C(=O)COC(=O)CCC(=O)NC(CC(=O)O)C(=O)O (some centres not stated),inactive
8,Cc1ccccc1-c1nccc2ccccc12,"inconclusive: 35.5 µM [inhibitor, single point]"
9,COCCN(CCOC)Cc1c(O)ccc2c1O/C(=C\c1ccco1)C2=O,"inconclusive: 50.1 µM [inhibitor, partial curve, poor fit]"
10,Cc1ccc(C(=O)NC(NC(=S)Nc2ccc(S(N)(=O)=O)cc2)C(Cl)(Cl)Cl)cc1 (configuration not stated),"inconclusive: 39.8 µM [inhibitor, partial curve, poor fit]"
11,CCCn1c2ccccc2c2cnn(CC(=O)NCc3cc(OC)ccc3OC)c(=O)c21,"inconclusive: 126 µM [inhibitor, partial curve, poor fit]"
12,O=C(CSc1nc2ccccc2s1)Nc1ccc2c(c1)oc1ccccc12,inactive
13,COc1ccc(-c2nc3c(s2)CN(C(C(=O)O)c2c[nH]c4cc(Br)ccc24)CC3)cc1 (configuration not stated),"inconclusive: 63.1 µM [inhibitor, partial curve, poor fit]"
14,COc1cc2nc(Nc3ccc(F)cc3)nc(N)c2cc1OC,"inconclusive: 89.1 µM [inhibitor, single point]"
15,COc1cc2c(cc1OC)CN(C(=O)c1cccc([N+](=O)[O-])c1)CC2,"inconclusive: 141 µM [inhibitor, single point]"
16,CCOC(=O)c1[nH]c(C)c(C(=O)Nc2ccc(Cl)cc2)c1C,inactive
17,COc1ccc(CNC(=O)C(=O)NCC(c2ccco2)S(=O)(=O)c2ccc(C)cc2)cc1 (configuration not stated),"inconclusive: 178 µM [inhibitor, single point]"
18,c1ccc(Nc2nc(Nc3ccccc3)nc(N3CCNCC3)n2)cc1,"inconclusive: 89.1 µM [inhibitor, single point]"
19,CCC(C)c1ccc(C(C)NC(=S)NCc2ccc(F)cc2)cc1 (configuration not stated),active: 39.8 µM
20,C=CCC[C@@H](Cc1ccc(F)cc1)C(=O)O[C@H](CNC(=O)[C@H](CC=C)CC(=O)N(CCO)Cc1ccccc1)c1ccccc1,"inconclusive: 100 µM [inhibitor, partial curve, poor fit]"
21,COC(=O)c1cc2c(c3c4ccccc4n(S(=O)(=O)c4ccc(C)cc4)c13)C(=O)N(Cc1ccccc1)C2,"inconclusive: 12.6 µM [inhibitor, full curve]"
